Measurements taken from article PMC3842039.
Results are given in words; binding and its absence hold for the method and conditions named. Some results given as binding are weak or reduced against the parent protein; the word gives no strength. Sequences can lack the tags named with a protein.

Assays:
[1] = target: AtGIP1 (GCP3-Interacting Protein 1), full length, yeast two-hybrid fusion (Arabidopsis thaliana) (UniProt Q9M0N8); assay: two-hybrid; yeast Y187 co-transformed with AD-AtGIP1 and BD-AtGIP1 or BD-AtGIP2; β-galactosidase filter (lift) assay
[2] = target: T1, AtGIP2, full length, yeast two-hybrid fusion (Arabidopsis thaliana) (UniProt Q9C9T3); assay: as above
T1 sequence: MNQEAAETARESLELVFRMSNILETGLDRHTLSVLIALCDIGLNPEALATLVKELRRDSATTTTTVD

B1: AtGIP1 (GCP3-Interacting Protein 1), full length, yeast two-hybrid fusion (protein, UniProt Q9M0N8 1-71)
chain: MDEEASRTARESLELVFRMSNILDTGLDRHTLSVLIALCDLGVNPEALATVVKELRRESIPDSVTTTPSIH
binding [1]: binds | binding [2]: binds
